From doi:10.1101/2023.02.27.530186 (bioRxiv, 2023)
Like-named read-outs stand apart in the source and are kept apart here. These are yes or no findings as the source states them, for the method shown. Binding seen in cells or lysates may run through a third protein. For some of these results: Binding calls can cover weak binding; strength is not graded here. For some of these results: Sequences can lack the tags named with a protein.

Tests used:
[1] = target: T3 SAMase E68Q/Q94A (catalytically inactive), C-terminally Strep-tagged (bacteriophage T3) (UniProt P07693); assay: pull-down
[2] = target: T1, MetK of E. coli, C-terminally Strep-tagged (E. coli) (UniProt P0A817); assay: pull-down
T1 sequence: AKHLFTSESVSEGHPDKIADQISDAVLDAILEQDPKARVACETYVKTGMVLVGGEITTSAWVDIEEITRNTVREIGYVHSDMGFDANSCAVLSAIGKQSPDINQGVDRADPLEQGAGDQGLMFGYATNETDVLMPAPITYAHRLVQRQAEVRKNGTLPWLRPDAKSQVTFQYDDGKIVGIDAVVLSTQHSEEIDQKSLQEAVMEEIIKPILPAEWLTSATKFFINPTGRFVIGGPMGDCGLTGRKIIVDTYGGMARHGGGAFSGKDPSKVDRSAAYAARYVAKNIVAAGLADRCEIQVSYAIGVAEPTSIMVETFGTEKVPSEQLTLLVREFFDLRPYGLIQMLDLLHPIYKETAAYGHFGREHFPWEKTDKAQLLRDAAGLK

[3] = target: T3 SAMase E68Q/Q94A, C-terminally His6-tagged (bacteriophage T3) (UniProt P07693); assay: SEC
[4] = target: T3 SAMase T4A, His-tagged (bacteriophage T3) (UniProt P07693); assay: pull-down
[5] = target: T3 SAMase I2A/T4S/K5S, His-tagged (bacteriophage T3) (UniProt P07693); assay: pull-down
[6] = target: T3 SAMase Δ5 (5-amino-acid N-terminal truncation), His-tagged (bacteriophage T3) (UniProt P07693); assay: pull-down
[7] = target: T3 SAMase Δ10 (10-amino-acid N-terminal truncation), His-tagged (bacteriophage T3) (UniProt P07693); assay: pull-down
[8] = target: T3 SAMase E68Q/Q94A, C-terminally His6-tagged (bacteriophage T3) (UniProt P07693); assay: pull-down
[9] = target: T3 SAMase E68Q/Q94A (catalytically inactive), C-terminally Strep-tagged (bacteriophage T3) (UniProt P07693); assay: pull-down; remark: listed apart in the source

## transcription termination factor Rho of E. coli, endogenous (from UniProt P0AG30 1-419)
[1]
  binding: binds

## T3 SAMase E68Q/Q94A, untagged (from UniProt P07693) (enzyme)
[2]
  binding: binds

B1: MetK, SAM synthase (methionine adenosyltransferase) of E. coli, endogenous (enzyme, UniProt P0A817 1-384, looked up)
chain: MAKHLFTSESVSEGHPDKIADQISDAVLDAILEQDPKARVACETYVKTGMVLVGGEITTSAWVDIEEITRNTVREIGYVHSDMGFDANSCAVLSAIGKQSPDINQGVDRADPLEQGAGDQGLMFGYATNETDVLMPAPITYAHRLVQRQAEVRKNGTLPWLRPDAKSQVTFQYDDGKIVGIDAVVLSTQHSEEIDQKSLQEAVMEEIIKPILPAEWLTSATKFFINPTGRFVIGGPMGDCGLTGRKIIVDTYGGMARHGGGAFSGKDPSKVDRSAAYAARYVAKNIVAAGLADRCEIQVSYAIGVAEPTSIMVETFGTEKVPSEQLTLLVREFFDLRPYGLIQMLDLLHPIYKETAAYGHFGREHFPWEKTDKAQLLRDAAGLK
[3]
  binding: binds
[4]
  binding: binds
[5]
  binding: no binding
[6]
  binding: no binding
[7]
  binding: no binding
[8]
  binding: binds
[9]
  binding: binds

B2: methionine synthase (MetE) of E. coli, endogenous (enzyme, UniProt P25665 1-753)
chain: MTILNHTLGFPRVGLRRELKKAQESYWAGNSTREELLAVGRELRARHWDQQKQAGIDLLPVGDFAWYDHVLTTSLLLGNVPARHQNKDGSVDIDTLFRIGRGRAPTGEPAAAAEMTKWFNTNYHYMVPEFVKGQQFKLTWTQLLDEVDEALALGHKVKPVLLGPVTWLWLGKVKGEQFDRLSLLNDILPVYQQVLAELAKRGIEWVQIDEPALVLELPQAWLDAYKPAYDALQGQVKLLLTTYFEGVTPNLDTITALPVQGLHVDLVHGKDDVAELHKRLPSDWLLSAGLINGRNVWRADLTEKYAQIKDIVGKRDLWVASSCSLLHSPIDLSVETRLDAEVKSWFAFALQKCHELALLRDALNSGDTAALAEWSAPIQARRHSTRVHNPAVEKRLAAITAQDSQRANVYEVRAEAQRARFKLPAWPTTTIGSFPQTTEIRTLRLDFKKGNLDANNYRTGIAEHIKQAIVEQERLGLDVLVHGEAERNDMVEYFGEHLDGFVFTQNGWVQSYGSRCVKPPIVIGDISRPAPITVEWAKYAQSLTDKPVKGMLTGPVTILCWSFPREDVSRETIAKQIALALRDEVADLEAAGIGIIQIDEPALREGLPLRRSDWDAYLQWGVEAFRINAAVAKDDTQIHTHMCYCEFNDIMDSIAALDADVITIETSRSDMELLESFEEFDYPNEIGPGVYDIHSPNVPSVEWIEALLKKAAKRIPAERLWVNPDCGLKTRGWPETRAALANMVQAAQNLRRG
[9]
  binding: binds
